At least one structure is not confirmed: it was looked up by name or label, or the drawing left a doubt.
Target: S. aureus RNA polymerase (Staphylococcus aureus, UniProt P47768)
Assay: Rolling circle transcription on circular 81mer ssDNA, real-time SYBR Gold fluorescence and gel electrophoresis
Assay type: biochemical
Settings: 10 μM rifampicin, 10 min preincubation at 37° C., 1 mM each NTP, fluorescence about 3 hours (FIG. 6)

Amino acid sequences for entries named in this document (tags omitted).
UniProt P47768, whole entry: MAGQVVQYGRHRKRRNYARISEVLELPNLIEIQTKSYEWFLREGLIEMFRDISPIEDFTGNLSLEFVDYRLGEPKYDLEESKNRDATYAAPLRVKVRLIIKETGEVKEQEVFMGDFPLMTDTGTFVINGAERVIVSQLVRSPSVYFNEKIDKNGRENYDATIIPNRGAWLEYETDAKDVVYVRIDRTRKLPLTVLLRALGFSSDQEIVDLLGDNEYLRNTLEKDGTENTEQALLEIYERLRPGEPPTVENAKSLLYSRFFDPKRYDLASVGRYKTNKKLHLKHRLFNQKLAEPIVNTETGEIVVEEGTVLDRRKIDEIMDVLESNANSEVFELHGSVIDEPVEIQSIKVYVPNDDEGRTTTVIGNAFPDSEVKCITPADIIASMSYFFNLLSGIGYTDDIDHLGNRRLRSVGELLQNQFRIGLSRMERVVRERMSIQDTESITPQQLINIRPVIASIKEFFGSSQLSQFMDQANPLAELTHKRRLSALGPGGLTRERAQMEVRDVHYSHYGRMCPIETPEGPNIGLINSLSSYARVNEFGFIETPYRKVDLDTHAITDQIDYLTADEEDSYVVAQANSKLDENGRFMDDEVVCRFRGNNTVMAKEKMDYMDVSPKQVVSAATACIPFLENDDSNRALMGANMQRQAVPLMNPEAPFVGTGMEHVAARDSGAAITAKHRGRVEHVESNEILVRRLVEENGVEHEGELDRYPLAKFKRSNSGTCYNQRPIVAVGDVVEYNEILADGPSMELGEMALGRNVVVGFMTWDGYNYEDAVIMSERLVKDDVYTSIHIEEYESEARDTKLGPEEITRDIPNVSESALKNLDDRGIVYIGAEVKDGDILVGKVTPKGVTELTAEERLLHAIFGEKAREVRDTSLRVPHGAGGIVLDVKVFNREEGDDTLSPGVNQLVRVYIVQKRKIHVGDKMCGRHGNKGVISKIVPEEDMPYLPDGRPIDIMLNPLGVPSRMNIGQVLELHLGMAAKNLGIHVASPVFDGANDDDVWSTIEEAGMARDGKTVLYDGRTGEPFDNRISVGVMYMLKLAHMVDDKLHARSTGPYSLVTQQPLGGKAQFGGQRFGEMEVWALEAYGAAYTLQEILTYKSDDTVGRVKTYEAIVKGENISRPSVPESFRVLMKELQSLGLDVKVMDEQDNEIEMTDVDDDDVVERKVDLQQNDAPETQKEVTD

`CO[C@H]1/C=C/O[C@@]2(C)Oc3c(C)c(O)c4c(O)c(c(/C=N/N5CCN(C)CC5)c(O)c4c3C2=O)NC(=O)/C(C)=C\C=C\[C@H](C)[C@H](O)[C@@H](C)[C@@H](O)[C@@H](C)[C@H](OC(C)=O)[C@@H]1C` [rifampicin] was tested, and the “RNA synthesis in the presence of inhibitor” value was “no RNA was synthesized”.

Reference: US20070111216A1 (priority 2004, published 2007)
